This is one part of the list. Single values are uncertain here, since repeats match poorly.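 The cells were human embryonic kidney cells carrying a Renilla luciferase gene, driven by the HSV-TK promoter, on a plasmid put in briefly by transfection. This is the first-round screen of about ten thousand compounds, looking for ones that raise reporter output.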

This experiment concerns HEK 293FT. In words: log relative Renilla luciferase luminescence (reporter expression vs reference, reference not stated) (log (base not stated)); higher = higher recombinant reporter expression. The settings on record: 10 µM; time after transfection 48 h. The method, then:
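HEK 293FT cells transiently transfected with pRL-TK (Renilla luciferase) were treated with compounds at 10 uM and luminescence was read about 42 h later. Values are log relative Renilla luminescence (log base and reference not stated). Single-pass screen; 2080 natural products library.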
Consider `COc1ccc2ccc(=O)oc2c1/C=C/C(C)(C)O` [Murraol], for which the log amounted to 0.0222.

`COc1c(O)cc(O)c2c(=O)cc(-c3ccc(O)cc3)oc12` [4'-Hydroxywogonin]: the log was -0.499.

Consider `C/C=C(/C)C(=O)O[C@H]1c2cc3c(c(OC)c2-c2c(cc(OC)c(OC)c2OC)C[C@H](C)[C@@H]1C)OCO3` [Angeloylisogomisin O], for which the log was -0.0197. The value for `C[C@@]1(CO)C[C@@H](O)C[C@@]2(C)[C@@H]3CC[C@](C)([C@@H](O)CO)C=C3CC[C@H]12` [Kirenol] was -0.0264; that for `C=C(C)[C@@H]1CC[C@@](C)([C@H]2CC[C@]3(C)[C@@H]2CC[C@@H]2[C@@](C)(CCC(=O)O)[C@H](C(=C)C)CC[C@]23C)O1` [Richenoic acid] was -0.368; that for `CC(C)(O)[C@@H](COc1c2occc2cc2ccc(=O)oc12)OC(C)(C)[C@H](O)COc1c2occc2cc2ccc(=O)oc12` [Rivulobirin E] was 0.196. With `C=C1CC[C@H]2C(C)(C)[C@@H](O)CC[C@]2(C)[C@H]1CC/C(C)=C/C(=O)O` [Alepterolic acid], the log was found to be 0.0208. As for `C[C@H]1[C@H](O)CC[C@@H]2[C@]1(C)CC[C@H]1[C@@]2(C)CC[C@@]2(C)[C@H]3CC(C)(C)CC[C@]3(C)CC[C@]12C` [Friedelanol], the log is -0.17. Consider `C=C(C(=O)O)[C@@H]1CC[C@@]2(C)CCC[C@@](C)(O)[C@@H]2C1` [Ilicic acid], for which the log was 0.116.

Take `Oc1ccc(C2Oc3cc(O)c4c5c3C2c2cc(O)cc(O)c2C(c2ccc(O)cc2)C5C(c2cc(O)cc(O)c2)C4c2ccc(O)cc2)cc1` (stereo not drawn) [Viniferol D]: the log stood at 0.0396. With `COc1cc([C@H]2OC[C@H]3[C@@H]2CO[C@@H]3c2ccc(O[C@@H]3O[C@H](CO)[C@@H](O)[C@H](O)[C@H]3O)c(OC)c2)ccc1O` [(+)-Pinoresinol-4-O-beta-D-glucopyranoside], the log is -0.554. Take `COc1cc2oc(=O)ccc2c(OC)c1O` [Fraxinol]: the log is -0.102. Turning to `C=C1[C@H]2CC[C@@]3([C@H]4C[C@H]5[C@@]6(CCC[C@@]5(C)C(=O)OC6O4)[C@@H]3C2)[C@H]1O` [Spiramilactone B], the log turned out to be 0.0016.

For the origin of these results see the supplement of paper PMC7024190.
